This is an account of results in paper PMC9774250.

The target of data set [1] is apo-YgaV (His-tagged) (UniProt P77295). Briefly: DNase I footprinting. Conditions: 1 mM DTT, Mg2+, Ca2+, footprint: 100 nM DNA, 12.5 mM HEPES/NaOH pH 8.0, 5 mM K-acetate, 2.5 mM Mg-acetate, 1 mM CaCl2, 12.5 ug/mL BSA, 0.3 mg/mL heparin, ~22 C, recombinant protein, residues 1-99, protein details: N-terminal His (pColdI), probe letters rebuilt from the primers and the genome, part of a longer molecule.

The target is the same in data set [2]. Briefly: EMSA. Conditions: EMSA: 50 nM probe, 25 mM Tris-HCl pH 8.0, 100 mM NaCl, 2 mM MgCl2, 6% glycerol, room temperature 30 min, recombinant protein, residues 1-99, protein details: N-terminal His (pColdI), probe letters rebuilt from the primers and the genome, part of a longer molecule. (In EMSA bound probe runs differently from free probe, usually more slowly.)

Data set [3] concerns the target T1, heme-YgaV (His-tagged, hemin-reconstituted) (UniProt P77295).
T1 sequence (looked up): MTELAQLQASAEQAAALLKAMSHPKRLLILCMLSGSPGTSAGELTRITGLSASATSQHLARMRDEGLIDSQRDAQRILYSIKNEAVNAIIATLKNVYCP
As to the kind of experiment: EMSA. Conditions: heme, 10 mM Na2S (oxidized); EMSA: 50 nM probe, 25 mM Tris-HCl pH 8.0, 100 mM NaCl, 2 mM MgCl2, 6% glycerol, room temperature 30 min; recombinant protein; residues 1-99; protein details: N-terminal His (pColdI); probe letters rebuilt from the primers and the genome; part of a longer molecule.

The exact form of at least one protein or probe is not confirmed. For part of these data: The direction of at least one scale is not stated here. For part of these data: Tags and fusion partners may be left off the protein sequences shown.

Regarding “CGATTCTCCAGAAACCCATATGTACTCCCTATAAGAAAATTACTCATTGTTTAAAAAGAGATTTTATCTCTTAAGCGTAGTAATTTTAGCGGAGCCTGCCAGTTTCAGCTTACGCTTTTACTCTCATTTACGCTGCTGAGGCTGGTATATGTTGCATTTTTAGTTTAGAGTTTACTTAATTTAGAAAATACTTAAATAAATATGACTGAACTCGCGCAATTACAGGCCAGTGCCGAACAGG (double strand) [ygaVP promoter]”, the binding result is on record as “binds” with apo-YgaV (His-tagged) [1] and “binds” with apo-YgaV (His-tagged) [2] (1 mM DTT (reduced), EC50 only in figure). The binding signal (fold higher EC50 than DTT-reduced) (with apo-YgaV (His-tagged) [2] (10 mM Na2S (oxidized)); in data set [3]) was 5 in each case.

Regarding “TAAATAGTGTGGCTTTTGTGAAAATCACACAGTGATCACAAATTTTAAACAGAGCACAAAATGCTGCCTCGAAATGAGGGCGGGAAAATAAGGTTATCAGCCTTGTTTTCTCCCTCATTACTTGAAGGATATGAAGCTAAAACCCTTTTTTATAAAGCATTTGTCCGAATTCGGACATAATCAAAAAAGCTTAATTAAGATCAATTTGATCTACATCTCTTTAACCAACAATATGTAAGATCTCAACTATCGCATCCGTGGATTAATTCAATTATAACTTCTCTCTAACGCTGTGTATCGTAACGGTAACACTGTAGAGGGGAGCACATTGATG (double strand) [katG promoter]”, the binding result in the data set with apo-YgaV (His-tagged) [1] is reported as “binds”. Moreover, the binding signal with apo-YgaV (His-tagged) [2] (1 mM DTT (reduced), scale: fold higher YgaV concentration for shift than ygaV promoter) stood at 20.
